Data on 38 targets can be found in the supplement of paper PMC11732987, “Enantioselective OTUD7B fragment discovery through chemoproteomics screening and high-throughput optimisation” (Communications Chemistry, 2025).

By UniProt entry, the sequences of proteins in these tests, tags left out. Where a name states a change or a piece, a line headed by the entry shows the natural chain unless it says otherwise. Residues count along the entry.
UniProt Q02224: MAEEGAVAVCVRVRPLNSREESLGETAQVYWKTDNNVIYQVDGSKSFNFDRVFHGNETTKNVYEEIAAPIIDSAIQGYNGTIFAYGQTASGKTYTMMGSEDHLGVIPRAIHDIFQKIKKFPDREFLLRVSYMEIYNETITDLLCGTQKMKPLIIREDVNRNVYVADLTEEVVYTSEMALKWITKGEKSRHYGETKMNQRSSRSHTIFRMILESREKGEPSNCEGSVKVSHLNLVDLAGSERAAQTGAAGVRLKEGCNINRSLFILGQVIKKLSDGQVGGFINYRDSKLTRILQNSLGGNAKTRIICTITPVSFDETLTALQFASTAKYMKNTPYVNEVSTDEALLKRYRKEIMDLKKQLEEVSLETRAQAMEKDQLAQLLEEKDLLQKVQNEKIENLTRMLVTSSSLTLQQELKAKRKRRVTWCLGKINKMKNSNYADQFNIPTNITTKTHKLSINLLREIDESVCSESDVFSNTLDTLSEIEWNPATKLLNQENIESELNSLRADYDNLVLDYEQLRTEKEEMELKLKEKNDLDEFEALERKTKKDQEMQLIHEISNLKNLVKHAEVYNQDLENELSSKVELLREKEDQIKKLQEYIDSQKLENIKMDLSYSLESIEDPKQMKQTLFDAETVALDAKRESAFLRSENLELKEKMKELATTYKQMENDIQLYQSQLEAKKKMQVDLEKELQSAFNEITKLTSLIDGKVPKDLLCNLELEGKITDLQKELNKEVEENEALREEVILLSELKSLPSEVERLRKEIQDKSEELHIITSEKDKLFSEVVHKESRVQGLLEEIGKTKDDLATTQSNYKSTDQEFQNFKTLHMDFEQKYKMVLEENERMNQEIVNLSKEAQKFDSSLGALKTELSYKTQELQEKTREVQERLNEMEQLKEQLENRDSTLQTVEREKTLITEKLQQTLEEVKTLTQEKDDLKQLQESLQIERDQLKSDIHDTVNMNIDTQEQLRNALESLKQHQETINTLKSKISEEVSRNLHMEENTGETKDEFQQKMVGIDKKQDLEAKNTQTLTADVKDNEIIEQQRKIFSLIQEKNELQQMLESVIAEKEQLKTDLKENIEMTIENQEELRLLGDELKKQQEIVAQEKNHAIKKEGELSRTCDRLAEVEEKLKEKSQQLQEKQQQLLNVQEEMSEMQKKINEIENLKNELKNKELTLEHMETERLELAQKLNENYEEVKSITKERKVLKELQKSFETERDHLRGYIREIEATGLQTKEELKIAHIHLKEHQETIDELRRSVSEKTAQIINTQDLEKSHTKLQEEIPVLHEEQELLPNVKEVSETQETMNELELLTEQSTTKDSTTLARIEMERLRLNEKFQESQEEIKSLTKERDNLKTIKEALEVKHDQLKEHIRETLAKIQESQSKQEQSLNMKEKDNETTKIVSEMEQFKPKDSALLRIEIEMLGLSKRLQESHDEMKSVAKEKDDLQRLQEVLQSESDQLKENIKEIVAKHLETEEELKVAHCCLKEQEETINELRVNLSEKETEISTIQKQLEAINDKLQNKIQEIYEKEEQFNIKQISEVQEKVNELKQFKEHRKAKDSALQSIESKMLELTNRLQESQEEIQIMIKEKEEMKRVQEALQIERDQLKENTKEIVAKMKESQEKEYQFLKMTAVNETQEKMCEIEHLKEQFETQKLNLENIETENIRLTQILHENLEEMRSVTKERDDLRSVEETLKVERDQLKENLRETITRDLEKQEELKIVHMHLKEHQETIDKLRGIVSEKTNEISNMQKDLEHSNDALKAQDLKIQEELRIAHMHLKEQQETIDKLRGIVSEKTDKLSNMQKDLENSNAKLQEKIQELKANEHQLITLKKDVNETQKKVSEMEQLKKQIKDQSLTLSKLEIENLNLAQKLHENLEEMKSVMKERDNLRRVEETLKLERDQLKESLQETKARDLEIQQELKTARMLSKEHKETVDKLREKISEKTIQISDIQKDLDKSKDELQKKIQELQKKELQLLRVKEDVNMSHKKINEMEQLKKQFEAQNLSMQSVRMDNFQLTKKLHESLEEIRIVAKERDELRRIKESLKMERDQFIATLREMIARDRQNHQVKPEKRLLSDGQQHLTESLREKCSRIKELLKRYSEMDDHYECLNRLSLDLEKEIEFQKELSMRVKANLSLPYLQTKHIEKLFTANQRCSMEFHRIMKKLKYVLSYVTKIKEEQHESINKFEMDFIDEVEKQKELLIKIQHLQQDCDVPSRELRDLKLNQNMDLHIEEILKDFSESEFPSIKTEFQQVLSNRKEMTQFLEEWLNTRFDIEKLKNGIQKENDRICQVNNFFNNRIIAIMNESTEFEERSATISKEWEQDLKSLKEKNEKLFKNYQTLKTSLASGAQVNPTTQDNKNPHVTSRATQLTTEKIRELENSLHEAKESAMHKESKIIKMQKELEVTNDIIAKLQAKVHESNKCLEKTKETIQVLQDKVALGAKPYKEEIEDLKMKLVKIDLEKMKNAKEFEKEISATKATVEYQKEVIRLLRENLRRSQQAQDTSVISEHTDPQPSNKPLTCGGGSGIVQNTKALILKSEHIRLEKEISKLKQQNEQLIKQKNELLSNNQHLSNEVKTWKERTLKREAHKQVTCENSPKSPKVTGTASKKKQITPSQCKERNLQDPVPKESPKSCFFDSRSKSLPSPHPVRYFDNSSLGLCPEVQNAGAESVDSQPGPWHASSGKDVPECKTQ
UniProt Q5TB80: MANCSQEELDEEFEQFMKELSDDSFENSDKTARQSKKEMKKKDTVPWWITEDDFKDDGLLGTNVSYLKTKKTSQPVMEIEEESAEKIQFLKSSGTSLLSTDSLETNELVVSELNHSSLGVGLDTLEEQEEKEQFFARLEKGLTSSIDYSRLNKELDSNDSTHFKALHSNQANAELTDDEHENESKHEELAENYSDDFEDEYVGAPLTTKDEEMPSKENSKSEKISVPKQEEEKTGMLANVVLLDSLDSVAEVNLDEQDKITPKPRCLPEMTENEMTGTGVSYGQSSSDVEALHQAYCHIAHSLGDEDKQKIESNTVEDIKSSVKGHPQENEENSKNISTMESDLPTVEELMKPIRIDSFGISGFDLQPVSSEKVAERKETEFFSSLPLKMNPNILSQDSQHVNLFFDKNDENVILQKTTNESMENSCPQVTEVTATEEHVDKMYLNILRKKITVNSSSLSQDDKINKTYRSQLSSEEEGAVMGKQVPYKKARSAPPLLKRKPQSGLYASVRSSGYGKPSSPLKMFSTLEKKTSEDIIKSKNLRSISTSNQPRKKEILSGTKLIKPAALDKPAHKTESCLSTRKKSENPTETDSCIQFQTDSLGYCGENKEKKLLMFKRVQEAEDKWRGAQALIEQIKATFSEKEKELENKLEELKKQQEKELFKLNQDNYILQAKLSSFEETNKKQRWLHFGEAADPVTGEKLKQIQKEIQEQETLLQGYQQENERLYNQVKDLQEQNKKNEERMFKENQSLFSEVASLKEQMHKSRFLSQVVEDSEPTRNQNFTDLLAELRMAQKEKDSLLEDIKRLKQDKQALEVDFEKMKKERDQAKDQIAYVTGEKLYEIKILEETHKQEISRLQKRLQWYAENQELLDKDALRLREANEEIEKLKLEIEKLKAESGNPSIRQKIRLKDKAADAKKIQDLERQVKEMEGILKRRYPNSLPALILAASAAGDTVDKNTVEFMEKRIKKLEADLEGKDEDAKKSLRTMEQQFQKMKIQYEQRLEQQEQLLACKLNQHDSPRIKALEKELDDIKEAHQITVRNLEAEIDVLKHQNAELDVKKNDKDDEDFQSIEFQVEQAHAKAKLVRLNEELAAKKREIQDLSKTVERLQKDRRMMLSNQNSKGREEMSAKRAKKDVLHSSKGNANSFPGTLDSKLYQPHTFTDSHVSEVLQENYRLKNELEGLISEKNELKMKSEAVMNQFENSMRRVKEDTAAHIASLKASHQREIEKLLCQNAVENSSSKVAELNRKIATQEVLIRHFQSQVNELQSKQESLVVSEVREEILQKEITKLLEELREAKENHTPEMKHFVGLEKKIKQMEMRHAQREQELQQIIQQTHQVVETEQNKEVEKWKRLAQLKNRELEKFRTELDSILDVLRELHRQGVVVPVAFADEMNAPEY
UniProt Q96JM3: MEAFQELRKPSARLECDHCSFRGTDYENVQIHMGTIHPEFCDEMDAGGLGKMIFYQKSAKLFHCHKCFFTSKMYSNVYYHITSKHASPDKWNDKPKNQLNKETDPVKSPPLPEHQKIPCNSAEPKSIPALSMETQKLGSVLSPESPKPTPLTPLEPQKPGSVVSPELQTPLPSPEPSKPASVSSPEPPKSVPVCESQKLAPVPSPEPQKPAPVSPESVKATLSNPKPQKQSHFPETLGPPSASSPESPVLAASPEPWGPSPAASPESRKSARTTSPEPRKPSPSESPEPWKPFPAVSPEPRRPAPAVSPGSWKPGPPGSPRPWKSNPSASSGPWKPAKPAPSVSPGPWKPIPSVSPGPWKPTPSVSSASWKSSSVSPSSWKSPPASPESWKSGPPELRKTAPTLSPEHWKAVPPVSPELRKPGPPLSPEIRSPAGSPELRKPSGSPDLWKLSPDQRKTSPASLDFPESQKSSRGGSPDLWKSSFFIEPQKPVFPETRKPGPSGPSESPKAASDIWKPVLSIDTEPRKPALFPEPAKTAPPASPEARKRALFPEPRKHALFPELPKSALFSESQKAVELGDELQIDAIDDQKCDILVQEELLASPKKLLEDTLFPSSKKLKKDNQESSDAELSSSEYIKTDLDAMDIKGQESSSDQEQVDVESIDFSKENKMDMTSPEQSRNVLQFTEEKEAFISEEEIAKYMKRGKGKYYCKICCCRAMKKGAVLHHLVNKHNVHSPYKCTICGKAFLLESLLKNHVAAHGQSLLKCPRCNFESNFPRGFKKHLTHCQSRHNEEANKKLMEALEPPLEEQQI
UniProt Q13042, whole entry, looked up: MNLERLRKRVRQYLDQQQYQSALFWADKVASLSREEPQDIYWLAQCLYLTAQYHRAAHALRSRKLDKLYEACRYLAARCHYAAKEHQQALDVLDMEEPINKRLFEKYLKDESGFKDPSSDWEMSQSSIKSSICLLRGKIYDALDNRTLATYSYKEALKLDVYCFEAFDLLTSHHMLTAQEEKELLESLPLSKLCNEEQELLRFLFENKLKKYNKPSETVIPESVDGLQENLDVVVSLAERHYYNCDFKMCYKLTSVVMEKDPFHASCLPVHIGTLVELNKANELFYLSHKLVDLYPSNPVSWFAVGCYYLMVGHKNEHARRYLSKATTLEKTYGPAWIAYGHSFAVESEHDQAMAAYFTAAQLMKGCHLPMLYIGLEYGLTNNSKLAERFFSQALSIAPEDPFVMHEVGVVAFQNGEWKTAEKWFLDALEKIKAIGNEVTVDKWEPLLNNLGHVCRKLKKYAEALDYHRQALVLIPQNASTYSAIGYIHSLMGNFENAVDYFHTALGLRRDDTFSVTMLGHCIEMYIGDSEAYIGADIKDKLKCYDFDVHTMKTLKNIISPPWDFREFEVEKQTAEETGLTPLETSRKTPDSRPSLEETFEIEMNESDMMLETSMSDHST
UniProt Q96SZ6: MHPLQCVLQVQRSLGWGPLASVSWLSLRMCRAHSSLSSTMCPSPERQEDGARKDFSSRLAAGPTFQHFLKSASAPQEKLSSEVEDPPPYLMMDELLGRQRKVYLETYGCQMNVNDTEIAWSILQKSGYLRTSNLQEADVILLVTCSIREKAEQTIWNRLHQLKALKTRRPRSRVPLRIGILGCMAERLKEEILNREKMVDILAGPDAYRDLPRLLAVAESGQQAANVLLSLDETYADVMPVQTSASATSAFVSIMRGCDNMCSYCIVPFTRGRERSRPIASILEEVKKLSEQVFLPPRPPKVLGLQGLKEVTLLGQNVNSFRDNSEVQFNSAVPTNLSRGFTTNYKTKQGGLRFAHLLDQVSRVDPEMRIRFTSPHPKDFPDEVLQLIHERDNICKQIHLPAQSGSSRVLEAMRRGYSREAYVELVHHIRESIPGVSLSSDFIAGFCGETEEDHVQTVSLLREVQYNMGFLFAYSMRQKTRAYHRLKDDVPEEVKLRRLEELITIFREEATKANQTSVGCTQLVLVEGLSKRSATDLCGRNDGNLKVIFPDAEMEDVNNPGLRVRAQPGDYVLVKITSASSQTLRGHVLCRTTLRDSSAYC
UniProt P11802: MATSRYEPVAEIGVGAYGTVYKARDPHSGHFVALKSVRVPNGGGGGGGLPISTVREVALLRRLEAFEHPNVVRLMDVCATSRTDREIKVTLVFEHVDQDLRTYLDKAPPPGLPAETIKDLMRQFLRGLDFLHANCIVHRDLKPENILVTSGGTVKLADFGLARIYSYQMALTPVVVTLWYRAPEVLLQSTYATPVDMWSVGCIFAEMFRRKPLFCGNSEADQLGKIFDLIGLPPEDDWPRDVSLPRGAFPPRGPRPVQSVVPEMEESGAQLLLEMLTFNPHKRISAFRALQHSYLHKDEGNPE
UniProt Q12873, 1537-1563: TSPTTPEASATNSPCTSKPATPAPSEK

The list shows a part of the results. The data scatter; read single values as rough.

Compound in one experiment: ClCC(=O)N[C@@H]1CCCc2ccccc12
The experiment in a line: log2 mean competition ratio of IA-DTB cysteine labelling (DMSO/compound) (log2 ratio); higher = stronger cysteine engagement by compound. The conditions noted are these: 200 µM; treatment time: 4 h; cell line lysate: HEK293T. On the procedure:
(§1)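 IA-DTB competitive cysteine chemoproteomics in HEK293T RIPA lysate. Lysates were treated with compound 29 or 30 at 50 or 200 µM for 4 h, then IA-DTB (500 µM, 1 h), trypsin-digested, NeutrAvidin-enriched and analysed by diaPASEF. Competition ratio = intensity DMSO / intensity compound (n=4 treated, n=64 DMSO); binding: mean log2 CR ≥ 1 and p ≤ 0.05 plus QC filters. Target is the cysteine site.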
For the target CENPE C2162 (UniProt Q02224), the “log2 mean competition ratio” value is -0.11.
Take CEP192 C939 (UniProt Q8TEP8): the “log2 mean competition ratio” value stood at 0.084.
Still for that read-out and setting: to CDC37 C336 belongs 0.122; to CCAR1 C465 (UniProt Q8IX12), -0.0124.
Turning to CEP162 C578 (UniProt Q5TB80), the “log2 mean competition ratio” value turned out to be 0.38.
Same read-out and setting: to CEP152 C653 (UniProt O94986) belongs -0.0477; to CHAMP1 C119 (UniProt Q96JM3), -0.292.
The same measure, in the same setting: to CENPE C2602 (UniProt Q02224) belongs -0.0354; to CDC16 C194 (UniProt Q13042), 0.0388.
Still for that read-out and setting: the figure for CENPF C2738 (UniProt P49454) is -0.0351; for CDK5RAP1 C538 (UniProt Q96SZ6) it is 0.0673.

Compound in another experiment: ClCC(=O)N[C@H]1CCCc2ccccc12
The description is as above. As to conditions: 50 µM; treatment time: 4 h; cell line lysate: HEK293T. On the procedure: as §1
With CEP104 C525 (UniProt O60308), the “log2 mean competition ratio” value stood at 0.122.
On the same count and under the same terms, the figure for CENPF C1328 (UniProt P49454) is 0.425.
With CHAMP1 C592 (UniProt Q96JM3), the “log2 mean competition ratio” value is -0.8.
The same measure, in the same setting: to CENPB C259 (UniProt P07199) belongs 0.0478.
Consider CCND2 C5 (UniProt P30279), for which the “log2 mean competition ratio” value was -0.681.
Same read-out and setting: to CENPJ C294 (UniProt Q9HC77) belongs -0.363.
Still for that read-out and setting: the figure for CCDC88C C1467 (UniProt Q9P219) is 0.562; for CDC42 C157 it is -0.729.
On the same count and under the same terms, the figure for CEP135 C316 (UniProt Q66GS9) is 0.119; for CD99L2 C236 (UniProt Q8TCZ2) it is -0.102; for CDK4 C215 (UniProt P11802) it is -0.49.
CHAF1A C761 (UniProt Q13111): the “log2 mean competition ratio” value is 0.0529.
The same measure, in the same setting: the figure for CENPS C58 (UniProt Q8N2Z9) is 0.0908.
The same measure, in the same setting: the figure for CDYL C515 (UniProt Q9Y232) is -0.099.
The same measure, in the same setting: to CDK5 C117 (UniProt Q00535) belongs 0.218.
Consider CCT3 C398, for which the “log2 mean competition ratio” value was determined as 0.402.
Same read-out and setting: to CEP78 C653 (UniProt Q5JTW2) belongs -0.274; to CCT4 C337 (UniProt P50991), -0.348; to CENPF C1671 (UniProt P49454), 0.0201.
Still for that read-out and setting: the figure for CCDC8 C256 (UniProt Q9H0W5) is -0.0906.
As to CHD3 C1551 (UniProt Q12873), the “log2 mean competition ratio” value turned out to be 0.472.
Same read-out and setting: the figure for CENPE C2626 (UniProt Q02224) is 0.122; for CCT7 C370 (UniProt Q99832) it is 0.171; for CDKN2AIP C516 (UniProt Q9NXV6) it is 0.637.
Still for that read-out and setting: the figure for CCDC47 C283 (UniProt Q96A33) is 0.308; for CDAN1 C1213 it is -0.00881.
Same read-out and setting: to CENPK C38 (UniProt Q9BS16) belongs -0.106.
For the target CENPE C2162 (UniProt Q02224), the “log2 mean competition ratio” value is 0.126.
Still for that read-out and setting: the figure for CEP192 C939 (UniProt Q8TEP8) is 0.0774.
The same measure, in the same setting: to CDC37 C336 belongs -0.168; to CCAR1 C465 (UniProt Q8IX12), -0.212.
Still for that read-out and setting: to CEP162 C578 (UniProt Q5TB80) belongs 0.142; to CEP152 C653 (UniProt O94986), -0.154.
Turning to CHAMP1 C119 (UniProt Q96JM3), the “log2 mean competition ratio” value came to 0.0984.
On the same count and under the same terms, the figure for CENPE C2602 (UniProt Q02224) is -0.11; for CDC16 C194 (UniProt Q13042) it is -0.665.
On the same count and under the same terms, to CENPF C2738 (UniProt P49454) belongs -0.147; to CDK5RAP1 C538 (UniProt Q96SZ6), 0.0298.

The experiment is the same for the next values; noted with them: 200 µM; treatment time: 4 h; cell line lysate: HEK293T.
On to CEP104 C525 (UniProt O60308), for which the “log2 mean competition ratio” value is -0.0646.
Same read-out and setting: the figure for CENPF C1328 (UniProt P49454) is 0.232; for CHAMP1 C592 (UniProt Q96JM3) it is -0.172; for CENPB C259 (UniProt P07199) it is -0.0226.
The same measure, in the same setting: to CCND2 C5 (UniProt P30279) belongs 0.46; to CENPJ C294 (UniProt Q9HC77), 0.276.
On the same count and under the same terms, to CCDC88C C1467 (UniProt Q9P219) belongs -0.277.
Take CDC42 C157: the “log2 mean competition ratio” value was determined as 0.158.
On the same count and under the same terms, to CEP135 C316 (UniProt Q66GS9) belongs 0.0311; to CD99L2 C236 (UniProt Q8TCZ2), -0.206; to CDK4 C215 (UniProt P11802), -0.169.
Same read-out and setting: to CHAF1A C761 (UniProt Q13111) belongs -0.162; to CENPS C58 (UniProt Q8N2Z9), -0.0431; to CDYL C515 (UniProt Q9Y232), 0.144.
On the same count and under the same terms, to CDK5 C117 (UniProt Q00535) belongs -0.00093.
For CCT3 C398, the “log2 mean competition ratio” value was 0.105.
CEP78 C653 (UniProt Q5JTW2): the “log2 mean competition ratio” value is -0.233.
On to CCT4 C337 (UniProt P50991), for which the “log2 mean competition ratio” value is -0.0311.
Same read-out and setting: to CENPF C1671 (UniProt P49454) belongs 0.0573; to CCDC8 C256 (UniProt Q9H0W5), -0.0406; to CHD3 C1551 (UniProt Q12873), -0.6.
Still for that read-out and setting: the figure for CENPE C2626 (UniProt Q02224) is 0.132.
On the same count and under the same terms, to CCT7 C370 (UniProt Q99832) belongs -0.00229; to CDKN2AIP C516 (UniProt Q9NXV6), 0.0336; to CCDC47 C283 (UniProt Q96A33), 0.0497.
On to CDAN1 C1213, for which the “log2 mean competition ratio” value was 0.0295.
The same measure, in the same setting: to CENPK C38 (UniProt Q9BS16) belongs 0.232; to CENPE C2162 (UniProt Q02224), -0.101.
In the case of CEP192 C939 (UniProt Q8TEP8), the “log2 mean competition ratio” value came out at 0.00583.
For the target CDC37 C336, the “log2 mean competition ratio” value came to 0.235.
Same read-out and setting: the figure for CCAR1 C465 (UniProt Q8IX12) is 0.0881; for CEP162 C578 (UniProt Q5TB80) it is 0.00561.
The same measure, in the same setting: the figure for CEP152 C653 (UniProt O94986) is -0.157; for CHAMP1 C119 (UniProt Q96JM3) it is 0.174.
With CENPE C2602 (UniProt Q02224), the “log2 mean competition ratio” value was found to be 0.0943.
Still for that read-out and setting: to CDC16 C194 (UniProt Q13042) belongs 0.00255; to CENPF C2738 (UniProt P49454), -0.0891.
The same measure, in the same setting: to CDK5RAP1 C538 (UniProt Q96SZ6) belongs 0.0986.
